Results on one substance are retold here after article PMC7372013.

Chains of the proteins cited; added tags and fusions are not shown. Residues count along the entry.
UniProt Q07021, residues 74-282: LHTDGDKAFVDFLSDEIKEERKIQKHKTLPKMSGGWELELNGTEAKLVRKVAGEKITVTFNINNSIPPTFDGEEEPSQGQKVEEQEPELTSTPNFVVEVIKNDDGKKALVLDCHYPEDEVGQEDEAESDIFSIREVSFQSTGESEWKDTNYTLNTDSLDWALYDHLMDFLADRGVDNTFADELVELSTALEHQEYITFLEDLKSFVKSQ
UniProt O00425: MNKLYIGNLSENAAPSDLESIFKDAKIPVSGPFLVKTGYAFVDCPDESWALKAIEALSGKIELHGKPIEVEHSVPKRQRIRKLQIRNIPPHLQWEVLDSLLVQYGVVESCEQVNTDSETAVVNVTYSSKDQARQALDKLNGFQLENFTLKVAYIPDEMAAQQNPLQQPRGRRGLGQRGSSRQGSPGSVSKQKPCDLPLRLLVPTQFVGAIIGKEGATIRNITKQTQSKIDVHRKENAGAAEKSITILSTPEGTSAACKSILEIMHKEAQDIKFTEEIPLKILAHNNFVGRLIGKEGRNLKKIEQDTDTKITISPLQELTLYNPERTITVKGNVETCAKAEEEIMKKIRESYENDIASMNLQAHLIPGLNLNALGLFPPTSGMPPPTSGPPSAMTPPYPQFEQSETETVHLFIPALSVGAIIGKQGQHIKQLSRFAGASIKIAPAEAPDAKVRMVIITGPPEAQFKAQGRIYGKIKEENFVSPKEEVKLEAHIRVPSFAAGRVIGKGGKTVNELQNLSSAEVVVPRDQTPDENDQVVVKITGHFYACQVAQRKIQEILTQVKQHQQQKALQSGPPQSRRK

These are yes or no findings as the source states them, for the method shown. In cells and extracts the contact can be indirect. A yes stands for co-enrichment or nearness to the bait. Other partners may have been found.

The target in the test is Globular C1q receptor (human (endogenous in H929, U266, MM1S)) (UniProt Q07021). Description: affinity purification with mass spectrometry; CoIP-MS: mouse anti-gC1qR antibody on protein A magnetic beads, total protein of H929, U266 and MM1S in RIPA weak lysis buffer, rotated at 4 °C overnight; proteins found in all three cell lines.

Consider “insulin-like growth factor 2 mRNA binding protein 3 (from UniProt O00425 1-579)”, for which the binding result is reported as “binds”.
